Record: PubChem BioAssay AID1159578 (Peter MacCallum Cancer Centre, 2015)
Purpose: 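siRNA pools altering how lymphatic endothelial cells close a scratch wound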 (primary screen). Cells: human lymphatic endothelial cells. Reagents: siRNA pool against human genes, 40 nM. Time to read-out: 48 h after transfection. Read-out: 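Cells stained with dye and imaged after a scratch; covered wound area and nuclei counted, duplicates averaged, migration set against mock wells and turned into a robust z-score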. Scale: migration robust z-score: higher = faster migration into the scratch; migration relative to mock: higher = more scratch area covered than mock; nuclei per well: higher = more cells in the well. Active means: 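Migration changed when robust z exceeds 2 or falls below -2 and mean nuclei number is at least 3300; otherwise not called changed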. Calls: active = migration changed; inactive = no migration change, or too few cells.
This is an unselected part of about 18,000 reagents. In the full data, about 1,030 (5.7%) got an active call. 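Inactive calls also include pools with fewer than 3300 nuclei, whose migration was not assessed.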 Raw values are not corrected between plates. Entries without a mark were called inactive.

| gene | migration robust z-score | migration class with cell-count check | migration relative to mock | nuclei per well, duplicate mean |
| --- | --- | --- | --- | --- |
| LOXL4 (GeneID 84171) | 0.24 | migration z between -2 and 2; enough cells | 0.85 | 6742 |
| ZBTB33 (GeneID 10009) | -0.37 | migration z between -2 and 2; enough cells | 0.79 | 5236 |
| FGF14 (GeneID 2259) | 0.28 | migration z between -2 and 2; enough cells | 0.86 | 4071 |
| WDR18 (GeneID 57418) | -0.15 | migration z between -2 and 2; enough cells | 0.84 | 5449 |
| ATP6V1C2 (GeneID 245973) | 1.66 | migration z between -2 and 2; enough cells | 1.12 | 6198 |
| CKAP5 (GeneID 9793) | -1.47 | migration z between -2 and 2; enough cells | 0.5 | 4467 |
| PAK6 (GeneID 56924) | -0.91 | migration z between -2 and 2; enough cells | 0.63 | 3654 |
| APOBEC3B (GeneID 9582) | -0.38 | migration z between -2 and 2; enough cells | 0.73 | 5697 |
| ZWILCH (GeneID 55055) | -2.15 (active) | migration z below -2; enough cells | 0.32 | 6675 |
| NUP153 (GeneID 9972) | 0.39 | migration z between -2 and 2; enough cells | 0.88 | 6016 |
| UNC45B (GeneID 146862) | -0.32 | migration z between -2 and 2; enough cells | 0.8 | 6752 |
| PGLS (GeneID 25796) | -0.86 | migration z between -2 and 2; enough cells | 0.64 | 5524 |
| NIPAL3 (GeneID 57185) | 1.19 | migration z between -2 and 2; enough cells | 1.19 | 6883 |
| MIMS2 (GeneID 116151) | -0.26 | migration z between -2 and 2; enough cells | 0.82 | 5310 |
| A4GNT (GeneID 51146) | -0.54 | migration z between -2 and 2; enough cells | 0.74 | 6007 |
| ENHO (GeneID 375704) | -0.61 | migration z between -2 and 2; enough cells | 0.73 | 5038 |
| N4BP2L1 (GeneID 90634) | 0.88 | migration z between -2 and 2; enough cells | 1.12 | 5996 |
| DSCR9 (GeneID 257203) | 0.02 | migration z between -2 and 2; enough cells | 0.9 | 6386 |
| DCST1 (GeneID 149095) | 0.54 | migration z between -2 and 2; enough cells | 1.02 | 5264 |
| MRPL53 (GeneID 116540) | -2.18 (active) | migration z below -2; enough cells | 0.32 | 4987 |
| RNF144A (GeneID 9781) | -0.08 | migration z between -2 and 2; enough cells | 0.79 | 5082 |
| SHF (GeneID 90525) | 1.12 | migration z between -2 and 2; enough cells | 1.18 | 4604 |
| CLIC1 (GeneID 1192) | -2.21 (active) | migration z below -2; enough cells | 0.38 | 4870 |
| DAOA (GeneID 267012) | 1.2 | migration z between -2 and 2; enough cells | 1.2 | 5882 |

A run of entries taken from the entries so far, as a working copy:
| gene | migration robust z-score | migration class with cell-count check | migration relative to mock | nuclei per well, duplicate mean |
| --- | --- | --- | --- | --- |
| FGF14 (GeneID 2259) | 0.28 | migration z between -2 and 2; enough cells | 0.86 | 4071 |
| WDR18 (GeneID 57418) | -0.15 | migration z between -2 and 2; enough cells | 0.84 | 5449 |
| ATP6V1C2 (GeneID 245973) | 1.66 | migration z between -2 and 2; enough cells | 1.12 | 6198 |
| CKAP5 (GeneID 9793) | -1.47 | migration z between -2 and 2; enough cells | 0.5 | 4467 |
| PAK6 (GeneID 56924) | -0.91 | migration z between -2 and 2; enough cells | 0.63 | 3654 |
| APOBEC3B (GeneID 9582) | -0.38 | migration z between -2 and 2; enough cells | 0.73 | 5697 |

Continued.
| gene | migration robust z-score | migration class with cell-count check | migration relative to mock | nuclei per well, duplicate mean |
| --- | --- | --- | --- | --- |
| SERPINE2 (GeneID 5270) | 2.04 (active) | migration z above 2; enough cells | 1.42 | 5178 |
| ARID2 (GeneID 196528) | 0.12 | migration z between -2 and 2; enough cells | 0.92 | 7000 |
| SERTAD4 (GeneID 56256) | 1.91 | migration z between -2 and 2; enough cells | 1.38 | 6832 |
| C2orf68 (GeneID 388969) | -1.73 | under 3300 nuclei; migration not judged | 0.43 | 2670 |
| PRRX1 (GeneID 5396) | -0.21 | migration z between -2 and 2; enough cells | 0.76 | 6263 |
| TOR2A (GeneID 27433) | -0.92 | migration z between -2 and 2; enough cells | 0.64 | 5517 |
| FGD2 (GeneID 221472) | 0.72 | migration z between -2 and 2; enough cells | 1.08 | 4766 |
| HDAC1 (GeneID 3065) | -1.9 | migration z between -2 and 2; enough cells | 0.44 | 4290 |
| SLURP1 (GeneID 57152) | -1.9 | migration z between -2 and 2; enough cells | 0.4 | 4124 |
| ABHD8 (GeneID 79575) | 1.66 | migration z between -2 and 2; enough cells | 1.12 | 5732 |
| ASAP1 (GeneID 50807) | -0.2 | migration z between -2 and 2; enough cells | 0.84 | 5866 |
| ALG12 (GeneID 79087) | 0 | migration z between -2 and 2; enough cells | 0.88 | 6749 |
| HDAC10 (GeneID 83933) | -0.83 | migration z between -2 and 2; enough cells | 0.65 | 5886 |
| KALRN (GeneID 8997) | 1.03 | migration z between -2 and 2; enough cells | 1.01 | 6180 |
| SACK1D (GeneID 81610) | 0.05 | migration z between -2 and 2; enough cells | 0.9 | 7264 |
| DBNDD2 (GeneID 55861) | 1.27 | migration z between -2 and 2; enough cells | 1.21 | 5913 |
| XRCC1 (GeneID 7515) | -0.57 | migration z between -2 and 2; enough cells | 0.7 | 5812 |
| NDUFB10 (GeneID 4716) | 1.25 | migration z between -2 and 2; enough cells | 1.04 | 7350 |
| FEM1B (GeneID 10116) | 0.7 | migration z between -2 and 2; enough cells | 0.94 | 4610 |
| RGS4 (GeneID 5999) | -0.64 | migration z between -2 and 2; enough cells | 0.72 | 5377 |
| TBC1D3F (GeneID 84218) | 1.57 | migration z between -2 and 2; enough cells | 1.29 | 6570 |
| RPRD1B (GeneID 58490) | -0.3 | migration z between -2 and 2; enough cells | 0.81 | 4320 |
| METTL2A (GeneID 339175) | 0.97 | migration z between -2 and 2; enough cells | 1.14 | 4920 |
| SNRPA1 (GeneID 6627) | 1.06 | migration z between -2 and 2; enough cells | 1.16 | 6140 |
| TXK (GeneID 7294) | 0 | migration z between -2 and 2; enough cells | 0.8 | 4595 |
| TRAPPC8 (GeneID 22878) | -0.52 | migration z between -2 and 2; enough cells | 0.75 | 5258 |
| CT55 (GeneID 54967) | -1.38 | migration z between -2 and 2; enough cells | 0.52 | 6323 |
| TK2 (GeneID 7084) | -0.68 | migration z between -2 and 2; enough cells | 0.68 | 4393 |
| CTNNA3 (GeneID 29119) | -0.9 | migration z between -2 and 2; enough cells | 0.65 | 6066 |
| INS-IGF2 (GeneID 723961) | 1.39 | migration z between -2 and 2; enough cells | 1.25 | 5896 |
| H4C1 (GeneID 8359) | 0.81 | migration z between -2 and 2; enough cells | 1.1 | 5816 |
| NRBP2 (GeneID 340371) | -0.02 | migration z between -2 and 2; enough cells | 0.8 | 4996 |
| PON3 (GeneID 5446) | 0.34 | migration z between -2 and 2; enough cells | 0.98 | 8462 |
